Data as given in PubChem BioAssay AID1224830 (NIAID, 2016)
The whole screen tested about 18,000 reagents; below is an unselected part. In the full data, about 2,900 (16%) are marked active. 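Calls are made per well; low scores hint the gene aids the LPS response, high scores that it dampens it.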 Repeated entries: four replicate wells of each siRNA pool.

Aim: 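Regulators of TLR4 signalling towards TNF-alpha in macrophage-like cells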 (primary screen)
Cells: human THP-1 monocytic leukaemia cells, TNF dual-luciferase reporter clone, PMA-differentiated to macrophage-like cells
Reagent: siRNA pool against human genes, 50 nM
Time to read-out: LPS for 4 h, given about 3 days after siRNA transfection
Challenge: bacterial LPS (TLR4 ligand), 10 ng/ml
Measurement: 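Ratio of firefly to renilla light, scaled to the plate median and expressed as a robust z-score per replicate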
Reading the numbers: TNF reporter robust z-score: higher = stronger TNF reporter response to LPS
Active means: 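Each well counts as active if its z-score is over 2.8 or under -1.5; controls are left without a call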

SLN (sarcolipin) | TNF reporter robust z-score = 0.15; outcome = inactive
SLN (sarcolipin) | TNF reporter robust z-score = 0.63; outcome = inactive
SLN (sarcolipin) | TNF reporter robust z-score = 0.88; outcome = inactive
SLN (sarcolipin) | TNF reporter robust z-score = 0.42; outcome = inactive
BRAT1 (BRCA1 associated ATM activator 1) | TNF reporter robust z-score = -0.24; outcome = inactive
BRAT1 (BRCA1 associated ATM activator 1) | TNF reporter robust z-score = 1.9; outcome = inactive
BRAT1 (BRCA1 associated ATM activator 1) | TNF reporter robust z-score = 1.61; outcome = inactive
BRAT1 (BRCA1 associated ATM activator 1) | TNF reporter robust z-score = 0.37; outcome = inactive
CD38 (CD38 molecule) | TNF reporter robust z-score = 0.31; outcome = inactive
CD38 (CD38 molecule) | TNF reporter robust z-score = 0.94; outcome = inactive
CD38 (CD38 molecule) | TNF reporter robust z-score = 0.81; outcome = inactive
CD38 (CD38 molecule) | TNF reporter robust z-score = 0.79; outcome = inactive
HABP4 (hyaluronan binding protein 4) | TNF reporter robust z-score = -0.93; outcome = inactive
HABP4 (hyaluronan binding protein 4) | TNF reporter robust z-score = 0.61; outcome = inactive
HABP4 (hyaluronan binding protein 4) | TNF reporter robust z-score = -0.16; outcome = inactive
HABP4 (hyaluronan binding protein 4) | TNF reporter robust z-score = -0.23; outcome = inactive
TRIM15 (tripartite motif containing 15) | TNF reporter robust z-score = -1.01; outcome = inactive
TRIM15 (tripartite motif containing 15) | TNF reporter robust z-score = 0.32; outcome = inactive
TRIM15 (tripartite motif containing 15) | TNF reporter robust z-score = -0.46; outcome = inactive
TRIM15 (tripartite motif containing 15) | TNF reporter robust z-score = -0.58; outcome = inactive
NMU (neuromedin U) | TNF reporter robust z-score = 1.02; outcome = inactive
NMU (neuromedin U) | TNF reporter robust z-score = 0.75; outcome = inactive
NMU (neuromedin U) | TNF reporter robust z-score = -0.14; outcome = inactive
NMU (neuromedin U) | TNF reporter robust z-score = 0.62; outcome = inactive
REXO2 (RNA exonuclease 2) | TNF reporter robust z-score = 0.84; outcome = inactive
REXO2 (RNA exonuclease 2) | TNF reporter robust z-score = 1.05; outcome = inactive
REXO2 (RNA exonuclease 2) | TNF reporter robust z-score = 1.06; outcome = inactive
REXO2 (RNA exonuclease 2) | TNF reporter robust z-score = 1.19; outcome = inactive
NRARP (NOTCH regulated ankyrin repeat protein) | TNF reporter robust z-score = -0.49; outcome = inactive
NRARP (NOTCH regulated ankyrin repeat protein) | TNF reporter robust z-score = -0.66; outcome = inactive
NRARP (NOTCH regulated ankyrin repeat protein) | TNF reporter robust z-score = -1.16; outcome = inactive
NRARP (NOTCH regulated ankyrin repeat protein) | TNF reporter robust z-score = -0.47; outcome = inactive
OR8U8 (olfactory receptor family 8 subfamily U member 8) | TNF reporter robust z-score = 1.45; outcome = inactive
OR8U8 (olfactory receptor family 8 subfamily U member 8) | TNF reporter robust z-score = -0.7; outcome = inactive
OR8U8 (olfactory receptor family 8 subfamily U member 8) | TNF reporter robust z-score = 0.29; outcome = inactive
OR8U8 (olfactory receptor family 8 subfamily U member 8) | TNF reporter robust z-score = -0.39; outcome = inactive
SPG11 (SPG11 vesicle trafficking associated, spatacsin) | TNF reporter robust z-score = -0.66; outcome = inactive
SPG11 (SPG11 vesicle trafficking associated, spatacsin) | TNF reporter robust z-score = -1.48; outcome = inactive
SPG11 (SPG11 vesicle trafficking associated, spatacsin) | TNF reporter robust z-score = -0.91; outcome = inactive
SPG11 (SPG11 vesicle trafficking associated, spatacsin) | TNF reporter robust z-score = 0.07; outcome = inactive
S100A14 (S100 calcium binding protein A14) | TNF reporter robust z-score = -1.04; outcome = inactive
S100A14 (S100 calcium binding protein A14) | TNF reporter robust z-score = -0.11; outcome = inactive
S100A14 (S100 calcium binding protein A14) | TNF reporter robust z-score = -0.59; outcome = inactive
S100A14 (S100 calcium binding protein A14) | TNF reporter robust z-score = -0.25; outcome = inactive
HTN3 (histatin 3) | TNF reporter robust z-score = -0.82; outcome = inactive
HTN3 (histatin 3) | TNF reporter robust z-score = 1.02; outcome = inactive
HTN3 (histatin 3) | TNF reporter robust z-score = -0.48; outcome = inactive
HTN3 (histatin 3) | TNF reporter robust z-score = 0.68; outcome = inactive
EBLN2 (endogenous Bornavirus like nucleoprotein 2) | TNF reporter robust z-score = 0.32; outcome = inactive
EBLN2 (endogenous Bornavirus like nucleoprotein 2) | TNF reporter robust z-score = 1.85; outcome = inactive
EBLN2 (endogenous Bornavirus like nucleoprotein 2) | TNF reporter robust z-score = 0.14; outcome = inactive
EBLN2 (endogenous Bornavirus like nucleoprotein 2) | TNF reporter robust z-score = 0.16; outcome = inactive
MS4A4A (membrane spanning 4-domains A4A) | TNF reporter robust z-score = -0.84; outcome = inactive
MS4A4A (membrane spanning 4-domains A4A) | TNF reporter robust z-score = -0.74; outcome = inactive
MS4A4A (membrane spanning 4-domains A4A) | TNF reporter robust z-score = -0.71; outcome = inactive
MS4A4A (membrane spanning 4-domains A4A) | TNF reporter robust z-score = -1.18; outcome = inactive
TMEM132E (transmembrane protein 132E) | TNF reporter robust z-score = -0.31; outcome = inactive
TMEM132E (transmembrane protein 132E) | TNF reporter robust z-score = 0.54; outcome = inactive
TMEM132E (transmembrane protein 132E) | TNF reporter robust z-score = -0.27; outcome = inactive
TMEM132E (transmembrane protein 132E) | TNF reporter robust z-score = -0.28; outcome = inactive

Targets above whose gene name begins with E or e (4):
EBLN2 (endogenous Bornavirus like nucleoprotein 2) | TNF reporter robust z-score = 0.32; outcome = inactive
EBLN2 (endogenous Bornavirus like nucleoprotein 2) | TNF reporter robust z-score = 1.85; outcome = inactive
EBLN2 (endogenous Bornavirus like nucleoprotein 2) | TNF reporter robust z-score = 0.14; outcome = inactive
EBLN2 (endogenous Bornavirus like nucleoprotein 2) | TNF reporter robust z-score = 0.16; outcome = inactive
